Results are given in words; binding and its absence hold for the method and conditions named. In cells and extracts the contact can be indirect. Some entries that bind do so weakly or less than the wild type.
Target: FLAG-BPLF1 (vDUB, N-terminal domain of the Epstein-Barr virus large tegument protein BPLF1) (Epstein-Barr virus) (UniProt P03186)
Test: co-IP; HEK293T harvested 24 h after transfection; lysates incubated with anti-FLAG agarose affinity gel for 3 h at 4°C; immunoblot

Protein sequences, listed by entry. Tags and fused reporters are not part of them. Residues count along the entry.
UniProt P03186, residues 1-235: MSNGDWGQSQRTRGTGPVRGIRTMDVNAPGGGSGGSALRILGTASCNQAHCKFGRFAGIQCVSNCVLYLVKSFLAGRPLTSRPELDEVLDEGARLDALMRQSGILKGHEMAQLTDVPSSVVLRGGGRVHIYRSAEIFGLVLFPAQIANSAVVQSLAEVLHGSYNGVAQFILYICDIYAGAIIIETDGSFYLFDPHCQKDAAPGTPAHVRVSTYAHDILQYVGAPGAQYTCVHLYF

B1: RPN1 (ribophorin I), endogenous (protein, UniProt P04843 24-607)
chain: ASSEAPPLINEDVKRTVDLSSHLAKVTAEVVLAHLGGGSTSRATSFLLALEPELEARLAHLGVQVKGEDEEENNLEVRETKIKGKSGRFFTVKLPVALDPGAKISVIVETVYTHVLHPYPTQITQSEKQFVVFEGNHYFYSPYPTKTQTMRVKLASRNVESYTKLGNPTRSEDLLDYGPFRDVPAYSQDTFKVHYENNSPFLTITSMTRVIEVSHWGNIAVEENVDLKHTGAVLKGPFSRYDYQRQPDSGISSIRSFKTILPAAAQDVYYRDEIGNVSTSHLLILDDSVEMEIRPRFPLFGGWKTHYIVGYNLPSYEYLYNLGDQYALKMRFVDHVFDEQVIDSLTVKIILPEGAKNIEIDSPYEISRAPDELHYTYLDTFGRPVIVAYKKNLVEQHIQDIVVHYTFNKVLMLQEPLLVVAAFYILFFTVIIYVRLDFSITKDPAAEARMKVACITEQVLTLVNKRIGLYRHFDETVNRYKQSRDISTLNSGKKSLETEHKALTSEIALLQSRLKTEGSDLCDRVSEMQKLDAQVKELVLKSAVEAERLVAGKLKKDTYIENEKLISGKRQELVTKIDHILDAL
For B1, the binding was “binds”.

B2: EIF2A, endogenous (protein, UniProt Q9BY44 1-585)
chain: MAPSTPLLTVRGSEGLYMVNGPPHFTESTVFPRESGKNCKVCIFSKDGTLFAWGNGEKVNIISVTNKGLLHSFDLLKAVCLEFSPKNTVLATWQPYTTSKDGTAGIPNLQLYDVKTGTCLKSFIQKKMQNWCPSWSEDETLCARNVNNEVHFFENNNFNTIANKLHLQKINDFVLSPGPQPYKVAVYVPGSKGAPSFVRLYQYPNFAGPHAALANKSFFKADKVTMLWNKKATAVLVIASTDVDKTGASYYGEQTLHYIATNGESAVVQLPKNGPIYDVVWNSSSTEFCAVYGFMPAKATIFNLKCDPVFDFGTGPRNAAYYSPHGHILVLAGFGNLRGQMEVWDVKNYKLISKPVASDSTYFAWCPDGEHILTATCAPRLRVNNGYKIWHYTGSILHKYDVPSNAELWQVSWQPFLDGIFPAKTITYQAVPSEVPNEEPKVATAYRPPALRNKPITNSKLHEEEPPQNMKPQSGNDKPLSKTALKNQRKHEAKKAAKQEARSDKSPDLAPTPAPQSTPRNTVSQSISGDPEIDKKIKNLKKKLKAIEQLKEQAATGKQLEKNQLEKIQKETALLQELEDLELGI
With B2 the binding was “binds”.

B3: CYB5R3 (cytochrome b5 reductase 3), endogenous (enzyme, UniProt P00387 1-301)
chain: MGAQLSTLGHMVLFPVWFLYSLLMKLFQRSTPAITLESPDIKYPLRLIDREIISHDTRRFRFALPSPQHILGLPVGQHIYLSARIDGNLVVRPYTPISSDDDKGFVDLVIKVYFKDTHPKFPAGGKMSQYLESMQIGDTIEFRGPSGLLVYQGKGKFAIRPDKKSNPIIRTVKSVGMIAGGTGITPMLQVIRAIMKDPDDHTVCHLLFANQTEKDILLRPELEELRNKHSARFKLWYTLDRAPEAWDYGQGFVNEEMIRDHLPPPEEEPLVLMCGPPPMIQYACLPNLDHVGHPTERCFVF
With B3 the binding was “binds”.

From article PMC12013442
